# Experimental data reported in the supplement of paper PMC8728848.
# The other results are listed elsewhere or left out.
# B1: CM2 (Cordyceps militaris) (protein)
# chain: MEIAEQNVGKSCAIVNLIPPKEGSNIWTAKQVTIARNLPPNRGTGRHQIDWSFGPVKVTGYVDTTNWEIGVTVSIMGIDLGTVYGNLRDGVVLNVDLFLAKGQVRFYLKNGNEVWVHLSVEIRFDGKFEGDYKIITV
# Columns and labels:
# Assay in all cases: glycan array binding signal (z-score within array); higher = stronger binding
# Settings in all cases: glycan notation: IUPAC condensed, linker removed
# [1] = biological target: Neu5Ac(a2-3)Gal(b1-3)GalNAc
# Method in brief: (§1)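 The binding signal is a Z-score computed within each array and averaged over linkers. Arrays of the same protein sequence at different concentrations or buffers were also averaged together. Data originate from 3228 arrays in the Consortium for Functional Glycomics database, kept only where the protein sequence was available.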
# [2] = biological target: Neu5Ac(a2-3)Gal(b1-3)GalNAc(b1-3)Gal(a1-4)Gal(b1-4)Glc
# Method in brief: as §1
# [3] = biological target: Neu5Ac(a2-3)Gal(b1-3)GalNAc(b1-4)Gal(b1-4)Glc
# Method in brief: as §1
# [4] = biological target: Neu5Ac(a2-3)Gal(b1-3)GalNAc(b1-4)[Neu5Ac(a2-3)]Gal(b1-4)Glc
# Method in brief: as §1
# [5] = biological target: Neu5Ac(a2-3)Gal(b1-3)GalNAc(b1-4)[Neu5Ac(a2-8)Neu5Ac(a2-3)]Gal(b1-4)Glc
# Method in brief: as §1
# [6] = biological target: Neu5Ac(a2-3)Gal(b1-3)GalNAc6S
# Method in brief: as §1
# [7] = biological target: Neu5Ac(a2-3)Gal(b1-3)GlcNAc
# Method in brief: as §1
# [8] = biological target: Neu5Ac(a2-3)Gal(b1-3)GlcNAc(b1-2)Man
# Method in brief: as §1
# [9] = biological target: Neu5Ac(a2-3)Gal(b1-3)GlcNAc(b1-2)Man(a1-3)[GlcNAc(b1-4)][Neu5Ac(a2-3)Gal(b1-3)GlcNAc(b1-2)Man(a1-6)]Man(b1-4)GlcNAc(b1-4)GlcNAc
# Method in brief: as §1
# [10] = biological target: Neu5Ac(a2-3)Gal(b1-3)GlcNAc(b1-2)Man(a1-3)[Neu5Ac(a2-3)Gal(b1-3)GlcNAc(b1-2)Man(a1-6)]Man(b1-4)GlcNAc(b1-4)GlcNAc
# Method in brief: as §1
# [11] = biological target: Neu5Ac(a2-3)Gal(b1-3)GlcNAc(b1-2)[Neu5Ac(a2-3)Gal(b1-3)GlcNAc(b1-4)]Man(a1-6)[Neu5Ac(a2-3)Gal(b1-3)GlcNAc(b1-2)Man(a1-3)]Man(b1-4)GlcNAc(b1-4)GlcNAc
# Method in brief: as §1
# [12] = biological target: Neu5Ac(a2-3)Gal(b1-3)GlcNAc(b1-3)Gal(b1-3)GlcNAc
# Method in brief: as §1
# [13] = biological target: Neu5Ac(a2-3)Gal(b1-3)GlcNAc(b1-3)Gal(b1-4)GlcNAc
# Method in brief: as §1
# [14] = biological target: Neu5Ac(a2-3)Gal(b1-3)GlcNAc(b1-3)GalNAc
# Method in brief: as §1
# [15] = biological target: Neu5Ac(a2-3)Gal(b1-3)GlcNAc(b1-6)GalNAc
# Method in brief: as §1
# [16] = biological target: Neu5Ac(a2-3)Gal(b1-3)GlcNAc6S
# Method in brief: as §1
# [17] = biological target: Neu5Ac(a2-3)Gal(b1-3)[Fuc(a1-4)]GlcNAc
# Method in brief: as §1
# [18] = biological target: Neu5Ac(a2-3)Gal(b1-3)[Fuc(a1-4)]GlcNAc(b1-3)Gal(b1-3)[Fuc(a1-4)]GlcNAc
# Method in brief: as §1
# [19] = biological target: Neu5Ac(a2-3)Gal(b1-3)[Fuc(a1-4)]GlcNAc(b1-3)Gal(b1-4)[Fuc(a1-3)]GlcNAc
# Method in brief: as §1
# [20] = biological target: Neu5Ac(a2-3)Gal(b1-3)[GlcNAc(b1-6)]GalNAc
# Method in brief: as §1
# [21] = biological target: Neu5Ac(a2-3)Gal(b1-3)[Neu5Ac(a2-6)]GalNAc
# Method in brief: as §1
# [22] = biological target: Neu5Ac(a2-3)Gal(b1-3)[Neu5Ac(a2-6)]GlcNAc(b1-3)[Fuc(a1-3)[Gal(b1-4)]GlcNAc(b1-6)]Gal(b1-4)Glc
# Method in brief: as §1
binder,measurement,setting,value
B1,glycan array binding signal (z-score),[1],0.608
same,glycan array binding signal (z-score),[2],-0.506
same,glycan array binding signal (z-score),[3],1.57
same,glycan array binding signal (z-score),[4],-1.19
same,glycan array binding signal (z-score),[5],0.315
same,glycan array binding signal (z-score),[6],-0.202
same,glycan array binding signal (z-score),[7],0.181
same,glycan array binding signal (z-score),[8],-1.23
same,glycan array binding signal (z-score),[9],1.74
same,glycan array binding signal (z-score),[10],-0.199
same,glycan array binding signal (z-score),[11],-0.029
same,glycan array binding signal (z-score),[12],-2.02
same,glycan array binding signal (z-score),[13],-0.256
same,glycan array binding signal (z-score),[14],-0.351
same,glycan array binding signal (z-score),[15],0.51
same,glycan array binding signal (z-score),[16],-0.532
same,glycan array binding signal (z-score),[17],-0.052
same,glycan array binding signal (z-score),[18],0.659
same,glycan array binding signal (z-score),[19],-0.978
same,glycan array binding signal (z-score),[20],-1.74
same,glycan array binding signal (z-score),[21],-1.17
same,glycan array binding signal (z-score),[22],-0.461

# Taken from above for reference:
binder,measurement,setting,value
B1,glycan array binding signal (z-score),[4],-1.19
same,glycan array binding signal (z-score),[5],0.315
